From the supplement of paper PMC12819154, “High-throughput peptide-centric local stability assay extends protein–ligand identification to membrane proteins, tissues and bacteria” (Nature Structural & Molecular Biology, 2025)
This is one part of the list. Small differences around the control level are noise.

Amino acid sequences for entries named in this document (tags omitted). A change or cut given only in a name is not applied to a line headed by its entry.
UniProt Q8VCS6: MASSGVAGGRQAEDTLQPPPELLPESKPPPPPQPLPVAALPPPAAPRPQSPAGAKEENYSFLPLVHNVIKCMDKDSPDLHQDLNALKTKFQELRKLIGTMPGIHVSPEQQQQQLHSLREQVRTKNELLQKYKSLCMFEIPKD
UniProt Q8VC52, whole entry: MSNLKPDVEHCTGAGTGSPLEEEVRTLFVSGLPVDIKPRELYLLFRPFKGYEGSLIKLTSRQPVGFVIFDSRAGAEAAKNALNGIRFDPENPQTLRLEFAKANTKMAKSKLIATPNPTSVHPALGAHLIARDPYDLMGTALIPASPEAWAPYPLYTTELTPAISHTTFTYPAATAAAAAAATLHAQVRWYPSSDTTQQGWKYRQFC
UniProt Q8VCU1: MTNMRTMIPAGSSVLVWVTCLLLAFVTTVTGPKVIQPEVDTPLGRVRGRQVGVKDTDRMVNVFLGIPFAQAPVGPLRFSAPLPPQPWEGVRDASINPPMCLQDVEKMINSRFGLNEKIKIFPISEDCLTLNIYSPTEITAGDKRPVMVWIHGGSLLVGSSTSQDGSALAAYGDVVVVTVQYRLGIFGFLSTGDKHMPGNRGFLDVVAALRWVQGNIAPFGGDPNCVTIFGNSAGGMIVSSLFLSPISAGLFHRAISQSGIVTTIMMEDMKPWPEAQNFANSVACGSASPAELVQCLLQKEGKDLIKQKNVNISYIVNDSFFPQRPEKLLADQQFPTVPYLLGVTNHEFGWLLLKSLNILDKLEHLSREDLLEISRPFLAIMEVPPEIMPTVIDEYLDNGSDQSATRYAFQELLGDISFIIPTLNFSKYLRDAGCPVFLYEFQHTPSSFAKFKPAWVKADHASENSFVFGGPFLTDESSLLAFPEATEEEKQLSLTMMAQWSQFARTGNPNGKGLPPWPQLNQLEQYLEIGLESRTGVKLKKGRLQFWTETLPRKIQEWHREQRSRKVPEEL
UniProt Q8VE18: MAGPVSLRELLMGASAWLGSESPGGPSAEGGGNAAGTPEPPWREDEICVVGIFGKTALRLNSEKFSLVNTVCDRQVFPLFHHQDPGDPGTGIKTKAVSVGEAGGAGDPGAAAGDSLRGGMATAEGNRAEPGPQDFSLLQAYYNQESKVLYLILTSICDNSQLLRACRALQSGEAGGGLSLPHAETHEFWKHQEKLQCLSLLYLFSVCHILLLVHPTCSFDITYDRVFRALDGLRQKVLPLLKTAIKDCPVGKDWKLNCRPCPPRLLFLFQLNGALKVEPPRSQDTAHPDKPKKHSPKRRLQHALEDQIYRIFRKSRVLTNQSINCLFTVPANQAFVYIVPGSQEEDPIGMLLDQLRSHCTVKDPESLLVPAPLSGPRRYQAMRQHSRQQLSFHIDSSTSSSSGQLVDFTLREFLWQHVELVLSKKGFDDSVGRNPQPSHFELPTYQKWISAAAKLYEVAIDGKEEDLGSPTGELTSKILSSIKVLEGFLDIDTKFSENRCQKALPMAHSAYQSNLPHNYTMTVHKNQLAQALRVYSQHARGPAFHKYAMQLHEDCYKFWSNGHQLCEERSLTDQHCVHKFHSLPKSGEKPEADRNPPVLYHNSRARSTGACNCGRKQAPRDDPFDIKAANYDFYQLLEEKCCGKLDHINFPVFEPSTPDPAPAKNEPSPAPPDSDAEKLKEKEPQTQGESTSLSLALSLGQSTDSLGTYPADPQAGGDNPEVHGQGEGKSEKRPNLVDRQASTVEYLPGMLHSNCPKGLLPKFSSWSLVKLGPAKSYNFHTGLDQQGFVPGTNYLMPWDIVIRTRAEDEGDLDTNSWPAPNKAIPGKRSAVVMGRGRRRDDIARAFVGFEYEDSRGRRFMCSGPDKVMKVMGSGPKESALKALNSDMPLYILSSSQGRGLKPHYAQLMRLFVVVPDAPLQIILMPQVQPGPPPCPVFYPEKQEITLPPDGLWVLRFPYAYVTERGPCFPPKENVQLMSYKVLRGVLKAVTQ

compound: CN[C@@H]1C[C@H]2O[C@@](C)([C@@H]1OC)n1c3ccccc3c3c4c(c5c6ccccc6n2c5c31)C(=O)NC4 [staurosporine]; assay: log2 fold change of tryptic peptide abundance, ligand vs vehicle (limited proteolysis) (log2 ratio); higher = more trypsin-susceptible (destabilized); conditions: ligand concentration: 20 uM; sample: mouse liver crude lysate; replicate design: treated separately

**Q.** Which log2 fold change does the source give for “UniProt Q8VCS6 (peptide sequence: TKNELLQK, peptide start residue: 123)” here?
**A.** -0.0502

**Q.** “UniProt Q8VC52 (peptide sequence: TLFVSGLPVDIKPR, peptide start residue: 26)” was tested. Which log2 fold change did it give?
**A.** -0.0517

**Q.** How did the log2 fold change turn out when “UniProt Q8VCU1 (peptide sequence: SLNILDKLEHLSR, peptide start residue: 355)” was run?
**A.** 0.0883

**Q.** With “UniProt Q8VDN2 (peptide sequence: DMDELKK, peptide start residue: 31)” as the target, how does the log2 fold change read?
**A.** -0.156

**Q.** “UniProt Q8VE18 (peptide sequence: RPNLVDR, peptide start residue: 733)” was tested. Which log2 fold change did it give?
**A.** -0.624
